This assay addresses T1, peroxisome proliferator-activated receptor gamma coactivator 1α (PGC-1α) (mouse (in TCMK-1 cells)) (UniProt O70343).
T1 sequence: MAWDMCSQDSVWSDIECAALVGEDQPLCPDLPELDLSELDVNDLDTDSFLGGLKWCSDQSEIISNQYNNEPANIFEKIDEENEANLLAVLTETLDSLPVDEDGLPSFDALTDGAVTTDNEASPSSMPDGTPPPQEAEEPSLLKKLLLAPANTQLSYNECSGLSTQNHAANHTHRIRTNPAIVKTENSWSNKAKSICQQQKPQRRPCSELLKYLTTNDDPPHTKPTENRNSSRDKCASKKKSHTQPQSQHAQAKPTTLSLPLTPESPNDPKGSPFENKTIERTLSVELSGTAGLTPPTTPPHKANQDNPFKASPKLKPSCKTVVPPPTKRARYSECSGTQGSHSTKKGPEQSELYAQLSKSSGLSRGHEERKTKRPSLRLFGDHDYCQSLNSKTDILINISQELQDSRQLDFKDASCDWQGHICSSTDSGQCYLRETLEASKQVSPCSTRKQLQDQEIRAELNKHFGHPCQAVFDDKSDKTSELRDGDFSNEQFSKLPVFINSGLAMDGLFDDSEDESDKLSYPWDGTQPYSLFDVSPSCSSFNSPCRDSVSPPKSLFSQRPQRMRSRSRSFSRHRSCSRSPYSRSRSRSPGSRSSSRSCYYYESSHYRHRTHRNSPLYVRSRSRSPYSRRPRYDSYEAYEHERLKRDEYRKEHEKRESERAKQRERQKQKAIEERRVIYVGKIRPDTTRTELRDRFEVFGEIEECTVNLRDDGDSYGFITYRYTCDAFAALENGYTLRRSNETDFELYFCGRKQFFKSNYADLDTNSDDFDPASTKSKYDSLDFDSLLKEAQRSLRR
Nature of the assay: co-IP; in TCMK-1 cells; the sentence does not name the method (immunoprecipitation is the only interaction method in the methods); bait not told.

Results are given in words; binding and its absence hold for the method and conditions named. In cells and extracts the contact can be indirect. Some binding calls cover weakened binding; strength is not graded here.

B1: estrogen receptor-related receptor alpha (ERRα) (protein, UniProt O08580 1-422)
chain: MSSQVVGIEPLYIKAEPASPDSPKGSSETETEPPVTLASGPAPARCLPGHKEEEDGEGAGSGEQGSGKLVLSSLPKRLCLVCGDVASGYHYGVASCEACKAFFKRTIQGSIEYSCPASNECEITKRRRKACQACRFTKCLRVGMLKEGVRLDRVRGGRQKYKRRPEVDPLPFPGPFPAGPLAVAGGPRKTAPVNALVSHLLVVEPEKLYAMPDPASPDGHLPAVATLCDLFDREIVVTISWAKSIPGFSSLSLSDQMSVLQSVWMEVLVLGVAQRSLPLQDELAFAEDLVLDEEGARAAGLGDLGAALLQLVRRLQALRLEREEYVLLKALALANSDSVHIEDAEAVEQLREALHEALLEYEAGRAGPGGGAERRRAGRLLLTLPLLRQTAGKVLAHFYGVKLEGKVPMHKLFLEMLEAMMD
Turning to B1, the binding entry is “binds”.

B2: nuclear factor erythroid 2 (NF-E2)-related factor 2 (NRF2) (protein, UniProt Q60795 1-597)
chain: MMDLELPPPGLQSQQDMDLIDILWRQDIDLGVSREVFDFSQRQKDYELEKQKKLEKERQEQLQKEQEKAFFAQFQLDEETGEFLPIQPAQHIQTDTSGSASYSQVAHIPKQDALYFEDCMQLLAETFPFVDDHESLALDIPSHAESSVFTAPHQAQSLNSSLEAAMTDLSSIEQDMEQVWQELFSIPELQCLNTENKQLADTTAVPSPEATLTEMDSNYHFYSSISSLEKEVGNCGPHFLHGFEDSFSSILSTDDASQLTSLDSNPTLNTDFGDEFYSAFIAEPSDGGSMPSSAAISQSLSELLDGTIEGCDLSLCKAFNPKHAEGTMEFNDSDSGISLNTSPSRASPEHSVESSIYGDPPPGFSDSEMEELDSAPGSVKQNGPKAQPAHSPGDTVQPLSPAQGHSAPMRESQCENTTKKEVPVSPGHQKAPFTKDKHSSRLEAHLTRDELRAKALHIPFPVEKIINLPVDDFNEMMSKEQFNEAQLALIRDIRRRGKNKVAAQNCRKRKLENIVELEQDLGHLKDEREKLLREKGENDRNLHLLKRRLSTLYLEVFSMLRDEDGKPYSPSEYSLQQTRDGNVFLVPKSKKPDTKKN
With B2, the binding result is listed as “binds”.

Source of the values: publication PMC5429606.
